# No constants are given. Whether binding was seen depends on the method and setting. In cells and extracts the contact can be indirect. Some entries that bind do so weakly or less than the wild type. Where a sequence is shown, tags or fusion partners need not be part of it.
# Chains of the proteins cited; added tags and fusions are not shown.
# UniProt Q8VSC3: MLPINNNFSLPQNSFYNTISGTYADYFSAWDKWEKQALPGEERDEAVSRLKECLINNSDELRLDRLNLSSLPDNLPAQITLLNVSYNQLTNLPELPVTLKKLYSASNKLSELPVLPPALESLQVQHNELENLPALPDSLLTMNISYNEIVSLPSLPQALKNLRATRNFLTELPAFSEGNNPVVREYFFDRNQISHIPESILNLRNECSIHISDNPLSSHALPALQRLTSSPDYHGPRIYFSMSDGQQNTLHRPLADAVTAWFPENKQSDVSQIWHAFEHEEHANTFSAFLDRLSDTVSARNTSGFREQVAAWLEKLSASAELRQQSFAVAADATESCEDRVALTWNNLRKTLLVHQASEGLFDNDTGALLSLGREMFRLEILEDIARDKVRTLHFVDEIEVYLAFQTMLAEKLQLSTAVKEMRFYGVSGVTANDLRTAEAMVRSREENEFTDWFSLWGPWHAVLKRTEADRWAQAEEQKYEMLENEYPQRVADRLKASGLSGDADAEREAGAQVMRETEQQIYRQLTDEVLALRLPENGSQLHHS
# Target: GST::ipaH9.8 (HIS::GST::ipaH9.8 from pETM30) (Shigella flexneri) (UniProt Q8VSC3)
# Experiment: pull-down; LUMIER binding assay: GST::ipaH9.8 immobilised on beads, incubated 2 h with luciferase-tagged GBP from 293ET cells in LUMIER lysis buffer (150 mM NaCl, 0.1% Triton X-100, 20 mM Tris-HCl pH 7.4, 5% glycerol, 5 mM EDTA, proteinase inhibitors); eluted with glutathione; luciferase activity over GST control; only the target purified
row,Binder,binding
1,"luciferase::GBP2 (protein, UniProt P32456 1-591) MAPEINLPGPMSLIDNTKGQLVVNPEALKILSAITQPVVVVAIVGLYRTGKSYLMNKLAGKKNGFSLGSTVKSHTKGIWMWCVPHPKKPEHTLVLLDTEGLGDIEKGDNENDSWIFALAILLSSTFVYNSMGTINQQAMDQLHYVTELTDRIKANSSPGNNSVDDSADFVSFFPAFVWTLRDFTLELEVDGEPITADDYLELSLKLRKGTDKKSKSFNDPRLCIRKFFPKRKCFVFDWPAPKKYLAHLEQLKEEELNPDFIEQVAEFCSYILSHSNVKTLSGGIPVNGPRLESLVLTYVNAISSGDLPCMENAVLALAQIENSAAVEKAIAHYEQQMGQKVQLPTETLQELLDLHRDSEREAIEVFMKNSFKDVDQMFQRKLGAQLEARRDDFCKQNSKASSDCCMALLQDIFGPLEEDVKQGTFSKPGGYRLFTQKLQELKNKYYQVPRKGIQAKEVLKKYLESKEDVADALLQTDQSLSEKEKAIEVERIKAESAEAAKKMLEEIQKKNEEMMEQKEKSYQEHVKQLTEKMERDRAQLMAEQEKTLALKLQEQERLLKEGFENESKRLQKDIWDIQMRSKSLEPICNIL",binds
2,"luciferase::GBP4 (protein, UniProt Q96PP9 1-640) MGERTLHAAVPTPGYPESESIMMAPICLVENQEEQLTVNSKALEILDKISQPVVVVAIVGLYRTGKSYLMNRLAGKRNGFPLGSTVQSETKGIWMWCVPHLSKPNHTLVLLDTEGLGDVEKSNPKNDSWIFALAVLLSSSFVYNSVSTINHQALEQLHYVTELAELIRAKSCPRPDEAEDSSEFASFFPDFIWTVRDFTLELKLDGNPITEDEYLENALKLIPGKNPKIQNSNMPRECIRHFFRKRKCFVFDRPTNDKQYLNHMDEVPEENLERHFLMQSDNFCSYIFTHAKTKTLREGIIVTGKRLGTLVVTYVDAINSGAVPCLENAVTALAQLENPAAVQRAADHYSQQMAQQLRLPTDTLQELLDVHAACEREAIAVFMEHSFKDENHEFQKKLVDTIEKKKGDFVLQNEEASAKYCQAELKRLSEHLTESILRGIFSVPGGHNLYLEEKKQVEWDYKLVPRKGVKANEVLQNFLQSQVVVEESILQSDKALTAGEKAIAAERAMKEAAEKEQELLREKQKEQQQMMEAQERSFQEYMAQMEKKLEEERENLLREHERLLKHKLKVQEEMLKEEFQKKSEQLNKEINQLKEKIESTKNEQLRLLKILDMASNIMIVTLPGASKLLGVGTKYLGSRI",binds
3,"luciferase::GBP1 (protein, UniProt P32455 1-592) MASEIHMTGPMCLIENTNGRLMANPEALKILSAITQPMVVVAIVGLYRTGKSYLMNKLAGKKKGFSLGSTVQSHTKGIWMWCVPHPKKPGHILVLLDTEGLGDVEKGDNQNDSWIFALAVLLSSTFVYNSIGTINQQAMDQLYYVTELTHRIRSKSSPDENENEVEDSADFVSFFPDFVWTLRDFSLDLEADGQPLTPDEYLTYSLKLKKGTSQKDETFNLPRLCIRKFFPKKKCFVFDRPVHRRKLAQLEKLQDEELDPEFVQQVADFCSYIFSNSKTKTLSGGIQVNGPRLESLVLTYVNAISSGDLPCMENAVLALAQIENSAAVQKAIAHYEQQMGQKVQLPTETLQELLDLHRDSEREAIEVFIRSSFKDVDHLFQKELAAQLEKKRDDFCKQNQEASSDRCSALLQVIFSPLEEEVKAGIYSKPGGYRLFVQKLQDLKKKYYEEPRKGIQAEEILQTYLKSKESMTDAILQTDQTLTEKEKEIEVERVKAESAQASAKMLQEMQRKNEQMMEQKERSYQEHLKQLTEKMENDRVQLLKEQERTLALKLQEQEQLLKEGFQKESRIMKNEIQDLQTKMRRRKACTIS",binds
4,"luciferase::GBP3 (protein, UniProt Q9H0R5 1-595) MAPEIHMTGPMCLIENTNGELVANPEALKILSAITQPVVVVAIVGLYRTGKSYLMNKLAGKNKGFSLGSTVKSHTKGIWMWCVPHPKKPEHTLVLLDTEGLGDVKKGDNQNDSWIFTLAVLLSSTLVYNSMGTINQQAMDQLYYVTELTHRIRSKSSPDENENEDSADFVSFFPDFVWTLRDFSLDLEADGQPLTPDEYLEYSLKLTQGTSQKDKNFNLPRLCIRKFFPKKKCFVFDLPIHRRKLAQLEKLQDEELDPEFVQQVADFCSYIFSNSKTKTLSGGIKVNGPRLESLVLTYINAISRGDLPCMENAVLALAQIENSAAVQKAIAHYDQQMGQKVQLPAETLQELLDLHRVSEREATEVYMKNSFKDVDHLFQKKLAAQLDKKRDDFCKQNQEASSDRCSALLQVIFSPLEEEVKAGIYSKPGGYCLFIQKLQDLEKKYYEEPRKGIQAEEILQTYLKSKESVTDAILQTDQILTEKEKEIEVECVKAESAQASAKMVEEMQIKYQQMMEEKEKSYQEHVKQLTEKMERERAQLLEEQEKTLTSKLQEQARVLKERCQGESTQLQNEIQKLQKTLKKKTKRYMSHKLKI",no binding

# From PMC5644667
